From patent publication US20030217372A1, “Methods of using alpha 1b-adrenergic receptors” (priority 2002, published 2003)

Test system: WT and α1b-AR KO mice
Assay: Oral consumption, two-bottle choice paradigm
Assay type: in vivo
Method: Fluid intake was measured daily by weighting bottles, mice being housed individually. Tested solutions were replaced twice weekly.
Cocaine and morphine: For two weeks, bottles were filled with cocaine or morphine solution of decreasing concentration (one dose per week; 0.3 mg/ml then 0.2 mg/ml for cocaine and 0.2 mg/ml and 0.15 mg/ml for morphine) instead of water, so that mice accustom to the bitter taste. […] Then, to determine mean water consumption and eliminate basal side preference, two bottles of water were given for three days to each animal and basal consumption was calculated as the mean consumption from one bottle on day 2 and the other on day 3. Preference for cocaine (0.2 mg/ml) or morphine (0.15 mg/ml) was then measured over two 12-day sessions, drug and water sides being exchanged between the 2 sessions. Means of drug and water consumptions were estimated for the last 5 days of both 12-day periods.
Rewarding properties of cocaine and morphine were assessed in a two-bottle choice paradigm adapted from the method described by Ferraro et al. (Ferraro et al., Pharmacol. Biochem. Behav. 66:397-401, 2000) for cocaine and Borg and Taylor (Borg et al., Biochem. Behav. 47:633-46, 1994) for morphine.

Row | Structure (SMILES) | fluid intake when water replaced by drug solution (mice, cocaine 0.3 then 0.2 mg/ml) | fluid intake when water replaced by drug solution (WT mice, morphine 0.15 mg/ml, water 97.5±5.0) | fluid intake when water replaced by drug solution (α1b-AR KO mice, morphine)
1 | COC(=O)[C@H]1[C@@H](OC(=O)c2ccccc2)C[C@@H]2CC[C@H]1N2C.Cl [cocaine, cocaine hydrochloride] | no significant alteration | – | –
2 | CN1CC[C@]23c4c5ccc(O)c4O[C@H]2[C@@H](O)C=C[C@H]3[C@H]1C5 [morphine, morphine chiorhydrate] | – | 117.2 ± 3.9 mL/kg/day | but not α1b-AR KO fluid intake
